In patent US20020177554A1 (Akzo Nobel N.V., priority 1995, published 2002):

Test: general procedure: Fmoc solid-phase peptide synthesis; PEG-PS; Fmoc/tBu protected activated esters
Conditions: whole synthesis, reverse phase HPLC, acetate or chloride salts

Final HPLC purity, >90%:
AGWLADGSLRYPI, AGWLADRSVRYPI, AGWLSDGSVQYPI, PKFVKQNTLKLAT

End groups of sequences in plain letters are not given here. One purity is given for all peptides; the source may state it once.
